# Experimental data as given in paper doi:10.1101/459040.
# The chains behind the UniProt entries cited, without tags or fusion partners. Where a name states a change or a piece, a line headed by the entry shows the natural chain unless it says otherwise. A line that says so, or that is headed by a name, gives the form on record, which may keep a tag or linker.
# SBP-p62 (Q9UJW0, form named): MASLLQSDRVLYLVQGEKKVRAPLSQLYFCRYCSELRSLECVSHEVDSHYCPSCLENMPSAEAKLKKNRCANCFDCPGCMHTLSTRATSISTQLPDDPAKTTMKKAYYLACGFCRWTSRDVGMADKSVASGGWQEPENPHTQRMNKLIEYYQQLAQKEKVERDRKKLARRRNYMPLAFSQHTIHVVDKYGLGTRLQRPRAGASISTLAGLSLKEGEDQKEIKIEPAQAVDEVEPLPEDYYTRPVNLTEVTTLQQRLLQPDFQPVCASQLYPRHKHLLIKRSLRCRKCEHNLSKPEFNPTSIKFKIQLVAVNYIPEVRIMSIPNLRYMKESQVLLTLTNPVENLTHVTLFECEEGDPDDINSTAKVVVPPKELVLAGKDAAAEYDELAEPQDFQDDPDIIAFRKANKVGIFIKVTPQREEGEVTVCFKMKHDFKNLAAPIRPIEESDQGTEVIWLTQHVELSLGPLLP
# p50 (endogenous dynactin subunit) (Q13561-2, form named): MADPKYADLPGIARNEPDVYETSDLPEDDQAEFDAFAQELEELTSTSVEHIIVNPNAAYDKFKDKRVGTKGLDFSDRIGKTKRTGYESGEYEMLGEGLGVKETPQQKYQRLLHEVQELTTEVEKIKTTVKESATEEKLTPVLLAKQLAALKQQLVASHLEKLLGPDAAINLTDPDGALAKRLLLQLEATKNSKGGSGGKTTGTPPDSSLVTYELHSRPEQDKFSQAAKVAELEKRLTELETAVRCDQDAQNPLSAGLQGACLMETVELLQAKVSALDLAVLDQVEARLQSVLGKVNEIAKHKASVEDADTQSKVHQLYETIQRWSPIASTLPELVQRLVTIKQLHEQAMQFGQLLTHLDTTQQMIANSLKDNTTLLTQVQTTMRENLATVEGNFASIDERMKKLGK
# Results are given in words; binding and its absence hold for the method and conditions named. Binding seen in cells or lysates may run through a third protein. Some results given as binding are weak or reduced against the parent protein; the word gives no strength.
# Biological target: SBP-p62 (human) (UniProt Q9UJW0)
# Test: pull-down
substance,measurement,value
p50 (endogenous dynactin subunit) (from UniProt Q13561-2 1-406),binding,binds
